We go through 40 compounds from the supplement of paper PMC8166895.

Counter-ions that a name gives are not always drawn. This is one part of the list. Most values lie at the level of the controls, where differences are scatter.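 Differential scanning fluorimetry gave melting temperatures in a one-replicate pilot screen of a library of approved drugs plus clinical or known-target compounds. Hits increasing melting point at least 2 °C were the strongest stabilizers, while negative shifts signify destabilization.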 *1 amine or outer side, *2 acyl side, *3 side chain or, on linkers, in order; H or OH if unused. Where a SMILES comes first, the peptide text is derived from it. Bridges are numbered along the chain shown (N, C = ends). [ ]: non-standard residue; d: D form. The star is where a group is joined. pTerphenylCO(4''-OnC5H11) = CCCCCOc1ccc(-c2ccc(-c3ccc(C(=O)*)cc3)cc2)cc1; Orn(4R-OH,5R-OH) = O=C([C@H](C[C@@H](O)[C@@H](O)N[*:3])N[*:1])[*:2]; hTyr(3S-OH,4S-OH) = N[C@H](C(=O)O)[C@H](O)[C@@H](O)c1ccc(O)cc1; Pro(3S-OH,4S-Me) = C[C@H]1CN[C@H](C(=O)O)[C@H]1O; Hyp = O=C(O)[C@@H]1C[C@@H](O)CN1

For this test, the system named is SARS-CoV-2 main protease (Mpro, nsp5). In words: thermal shift ΔTm of Mpro relative to plate average Tm; higher = stronger thermal stabilization of Mpro (binding). The conditions noted are these: 10 µM; protein concentration 1 µM.
As to `C#Cc1cccc(Nc2ncnc3cc(OC)c(OCCCCCCC(=O)NO)cc23)c1`, the “thermal shift ΔTm of Mpro” value amounted to 0.122 °C.

With `CC(=O)S[C@@H]1CC2=CC(=O)CC[C@]2(C)[C@H]2CC[C@@]3(C)[C@@H](CC[C@@]34CCC(=O)O4)[C@H]12` [Spironolactone], the “thermal shift ΔTm of Mpro” value is 0.111 °C.

As for `COc1cccc2c1c(O)c(C(=O)N(C)c1ccc(C(F)(F)F)cc1)c(=O)n2C` [Tasquinimod], the “thermal shift ΔTm of Mpro” value is -0.139 °C.

For the compound `CCCc1cc(C(N)=S)ccn1` [Protionamide], the “thermal shift ΔTm of Mpro” value is 0.0401 °C.

`CC(=O)Nc1ccc(C(=O)Nc2ccccc2N)cc1` [CI994 (Tacedinaline)]: the “thermal shift ΔTm of Mpro” value came to 0.203 °C.

With `COc1cc2c(Nc3ccc(NC(=O)c4ccccc4)cc3)ncnc2cc1OCCCN1CCOCC1`, the “thermal shift ΔTm of Mpro” value was found to be 0.208 °C.

Take `CC(Cc1cccc(C(F)(F)F)c1)NCCOC(=O)c1ccccc1` (stereo not given) [Benfluorex hydrochloride]: the “thermal shift ΔTm of Mpro” value amounted to 0.13 °C.

For `O=C(O)[C@]1(Cc2cccc(Nc3nccs3)n2)CC[C@@H](Oc2cccc(Cl)c2F)CC1`, the “thermal shift ΔTm of Mpro” value was 0.158 °C.

As for `O=C(Nc1ccc(O)c(C(=O)O)c1)c1cccc(NC(=O)c2ccco2)c1`, the “thermal shift ΔTm of Mpro” value is -0.0931 °C.

Turning to `C=C1CC[C@H](O)C/C1=C/C=C1\CCC[C@]2(C)[C@@H]([C@H](C)CCCC(C)C)CC[C@@H]12` [Vitamin D3], the “thermal shift ΔTm of Mpro” value was determined as 0.588 °C.

Take `Cc1ccc(/C=C2\SC(=S)N(CCCCCC(=O)Nc3ccc(C(=O)O)c(O)c3)C2=O)cc1`: the “thermal shift ΔTm of Mpro” value was -0.0418 °C.

Take `CC(C)(O)[C@H]1CC[C@@](C)([C@H]2[C@@H](O)C[C@@]3(C)[C@@H]4C[C@H](O[C@@H]5O[C@H](CO)[C@@H](O)[C@H](O)[C@H]5O)[C@H]5C(C)(C)[C@@H](O[C@@H]6OC[C@@H](O)[C@H](O)[C@H]6O)CC[C@@]56C[C@@]46CC[C@]23C)O1` [Astragaloside A]: the “thermal shift ΔTm of Mpro” value was -0.0988 °C.

`CC(C)c1c(CN(C)C(C)Cc2ccccc2)n(C)n(-c2ccccc2)c1=O` (stereo not given) [Famprofazone]: the “thermal shift ΔTm of Mpro” value worked out at 0.122 °C.

In the case of `CN1CCN(C(=O)/C=C/c2ccc([N+](=O)[O-])o2)CC1`, the “thermal shift ΔTm of Mpro” value was -0.0556 °C.

For the compound `Cc1nccnc1N1CCCCC1` [Modaline sulfate], the “thermal shift ΔTm of Mpro” value came out at 0.236 °C.

Consider `C[C@@H](Oc1ccc2[nH]nc(/C=C/c3cnn(CCO)c3)c2c1)c1c(Cl)cncc1Cl`, for which the “thermal shift ΔTm of Mpro” value was -0.244 °C.

As for `O=P1(NCCCl)OCCCN1CCCl` (stereo not given) [Ifosfamide], the “thermal shift ΔTm of Mpro” value is 0.276 °C.

For `CC[C@H]1[C@@H](O)[C@@H]2[C@H](CC[C@]3(C)[C@@H]([C@H](C)CCC(=O)O)CC[C@@H]23)[C@@]2(C)CC[C@@H](O)C[C@@H]12` [Obeticholic Acid], the “thermal shift ΔTm of Mpro” value was -0.0524 °C.

Take `CNC1CCCN(c2c(F)cc3c(=O)c(C(=O)O)cn(C4CC4)c3c2OC)C1` (stereo not given) [Balofloxacin]: the “thermal shift ΔTm of Mpro” value came out at 0.0493 °C.

Consider `CC1=C(C)C(=O)C(CCCCCCCCCC[P+](c2ccccc2)(c2ccccc2)c2ccccc2)=CC1=O` [Visomitin], for which the “thermal shift ΔTm of Mpro” value worked out at 0.0701 °C.

Regarding `CN1CCC(=C2c3ccccc3C=Cc3ccccc32)CC1` [Cyproheptadine HCl], the “thermal shift ΔTm of Mpro” value worked out at 0.0534 °C.

With `O=C(Nc1ccc(Br)cc1)c1ccc(Br)c(S(=O)(=O)NCc2ccccc2)c1`, the “thermal shift ΔTm of Mpro” value was -0.00677 °C.

Turning to `CO[C@H]1/C=C/O[C@@]2(C)Oc3c(C)c(O)c4c(O)c(c(/C=N/N5CCN(C6CCCC6)CC5)c(O)c4c3C2=O)NC(=O)/C(C)=C\C=C\[C@H](C)[C@H](O)[C@@H](C)[C@@H](O)[C@@H](C)[C@H](OC(C)=O)[C@@H]1C` [Rifapentine], the “thermal shift ΔTm of Mpro” value worked out at 0.0509 °C.

Regarding `N=C(N)NC(=N)NCCc1ccccc1` [Phenformin HCl], the “thermal shift ΔTm of Mpro” value was -0.0289 °C.

On to `CC[C@H](CO)Nc1nc(N(C)Cc2ccccc2)c2ncn(C(C)C)c2n1` [Aftin-4], for which the “thermal shift ΔTm of Mpro” value was 0.0348 °C.

As for `CNC(=O)c1ccccc1Nc1nc(Nc2ccc(N3CCNCC3)cc2)ncc1Cl`, the “thermal shift ΔTm of Mpro” value was 0.322 °C.

Consider `CCNC(=O)[C@H]1O[C@@H](n2cnc3c(N)nc(NCCc4ccc(CCC(=O)O)cc4)nc32)[C@H](O)[C@@H]1O`, for which the “thermal shift ΔTm of Mpro” value is -0.0586 °C.

Consider `COC(=O)N[C@H](C(=O)N1CC2(CC2)C[C@H]1c1ncc(-c2ccc3c(c2)C(F)(F)c2cc(-c4ccc5nc([C@@H]6[C@H]7CC[C@H](C7)N6C(=O)[C@@H](NC(=O)OC)C(C)C)[nH]c5c4)ccc2-3)[nH]1)C(C)C` [Ledipasvir acetone], for which the “thermal shift ΔTm of Mpro” value came out at 0.0148 °C.

Consider `O=C(COc1cccc2c(=O)[nH]ccc12)c1ccccc1`, for which the “thermal shift ΔTm of Mpro” value is -0.181 °C.

Turning to `CC1=C(C(=O)Nc2ccc3[nH]ncc3c2)C(c2ccc(F)c(C(=O)NCc3ccccn3)c2)NC(=O)N1` (stereo not given), the “thermal shift ΔTm of Mpro” value was -0.0578 °C.

On to `CC1=C[C@@H]2[C@H]3[C@H](C(C)=C4[C@H]5OC(=O)[C@@H](C)[C@@H]5CC[C@](C)(O)[C@@H]43)[C@@]13[C@@H]2[C@@](C)(O)CC[C@H]1[C@H](C)C(=O)O[C@@H]13` [Absinthiin], for which the “thermal shift ΔTm of Mpro” value was -0.0384 °C.

With `O=C1CCC[C@@H]2[C@H]3CCCN4CCC[C@@H](CN12)[C@@H]34` [(+)-Matrine], the “thermal shift ΔTm of Mpro” value is -0.148 °C.

Take `CCOCCn1c(C2CCN(CCc3ccc(C(C)(C)C(=O)O)cc3)CC2)nc2ccccc21` [Bilastine]: the “thermal shift ΔTm of Mpro” value is 0.265 °C.

Turning to `Nc1ccc(S(=O)(=O)NC(=O)c2ccccc2)cc1` [Sulfabenzamide], the “thermal shift ΔTm of Mpro” value was -0.193 °C.

As for `CCCCCOc1ccc(-c2ccc(-c3ccc(C(=O)N[C@H]4C[C@@H](O)[C@@H](O)NC(=O)[C@@H]5[C@@H](O)[C@@H](C)CN5C(=O)[C@H]([C@@H](C)O)NC(=O)[C@H]([C@H](O)[C@@H](O)c5ccc(O)cc5)NC(=O)[C@@H]5C[C@@H](O)CN5C(=O)[C@H]([C@@H](C)O)NC4=O)cc3)cc2)cc1` ({pTerphenylCO(4''-OnC5H11)}-[Orn(4R-OH,5R-OH)]T[Hyp][hTyr(3S-OH,4S-OH)]T[Pro(3S-OH,4S-Me)]; lactam 1-C), the “thermal shift ΔTm of Mpro” value was -0.269 °C.

`CC(C)c1nc(N(C)S(C)(=O)=O)nc(-c2ccc(F)cc2)c1/C=C/[C@@H](O)C[C@@H](O)CC(=O)O` [Rosuvastatin]: the “thermal shift ΔTm of Mpro” value stood at 0.38 °C.

In the case of `CC(C)c1nc(N(C)S(C)(=O)=O)nc(-c2ccc(F)cc2)c1/C=C/[C@@H](O)C[C@@H](O)CC(=O)O` [Rosuvastatin Calcium], the “thermal shift ΔTm of Mpro” value was -0.0119 °C.

Take `C=C(C)[C@@H]1CC[C@]2(C(=O)O)CC[C@]3(C)[C@H](CC[C@@H]4[C@@]5(C)CC[C@H](O)C(C)(C)[C@@H]5CC[C@]43C)[C@@H]12` [Betulinic acid]: the “thermal shift ΔTm of Mpro” value turned out to be 0.174 °C.

Regarding `C1N2CN3CN1CN(C2)C3` [Methenamine], the “thermal shift ΔTm of Mpro” value turned out to be 0.198 °C.

As for `Cc1cccc(C)c1NC1=NCCCS1` [Xylazine HCl], the “thermal shift ΔTm of Mpro” value was determined as 0.0679 °C.
